Results from PubChem BioAssay AID540303 (National Center for Advancing Translational Sciences (NCATS), 2011).
The whole screen tested about 330,000 compounds, of which about 1,000 (0.3%) were called active. The shares of active, inactive and inconclusive entries below differ from those in the screen. Calls come from the whole dose curve; as a rule, active = well fitted inhibition curve with a large enough effect; inconclusive = small, poorly fitted or top-dose-only effect; inactive = no such curve, though single readings can be large or run the other way; tested in mouse RAW 264.7 cells. Potencies of inconclusive entries are doubtful fits and often do not repeat.

Assay: qHTS for Inhibitors of Cell Surface uPA Generation; note: nearly all actives have a fitted effect of over 55% in size
Conditions: cell surface uPA generation assay; series mostly up to 38.3 µM
Outline: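 Using RAW 264.7 macrophages, the screen measures whether compounds keep cellular ATP up by preventing uPA-driven LF translocation. Treatment lasted 24 h at 37 C, with a final top concentration of 38.3 uM, and luminescence was the readout.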
Potency is the fitted concentration of half-maximal effect.

Row | Compound | Potency
1 | S=C(NC1CCCC1)N1CCN(c2ccccn2)CC1 | inactive
2 | Cc1ccc(NC(=O)CCN2CCN(C/C=C/c3ccccc3)CC2)cc1C | inactive
3 | Cc1ccccc1NC1=NC(C)(C)N=C(N)N1 | inactive
4 | O=C(Oc1cccc2ccccc12)C1CC1 | inconclusive: 4.47 µM [inhibitor, partial curve, poor fit]
5 | COc1ccc(S(=O)(=O)Nc2cccc(N(C)S(C)(=O)=O)c2)cc1Br | inconclusive: 12.6 µM [inhibitor, single point]
6 | COc1ccc(-n2nc([N+](=O)[O-])c(=NCCc3ccc(OC)c(OC)c3)n2O)cc1 | inconclusive: 8.91 µM [inhibitor, partial curve, poor fit]
7 | COc1ccc(CNC(=O)c2cc3c(C)nc4ccccc4c3o2)c(OC)c1 | inconclusive: 10 µM [inhibitor, partial curve, poor fit]
8 | CC(=O)N1c2ccc(S(=O)(=O)N3CCCC(C(=O)NCc4ccc(Cl)cc4)C3)cc2CC1C (stereo not given) | inconclusive: 14.1 µM [inhibitor, single point]
9 | Nc1ccc(-c2cnc(N)c(C(=O)c3cccnc3)n2)cn1 | inconclusive: 12.6 µM [inhibitor, single point]
10 | Cn1c2ccccc2c(=O)c2cc(C#CC3(O)CCCCC3)ccc21 | active: 1.26 µM
11 | CC(C)N1CCN(CCCc2ccccc2)CC1CCO (stereo not given) | inconclusive: 2 µM [inhibitor, full curve, poor fit]
12 | Cc1c(C(=O)Nc2ccc3c(c2)OCO3)sc2nc(-c3ccccc3)cn12 | inconclusive: 1.58 µM [inhibitor, full curve, poor fit]
13 | CN(CCCCCCCCCCN(C)C(=O)Oc1cccc([N+](C)(C)C)c1)C(=O)Oc1cccc([N+](C)(C)C)c1 | inconclusive: 5.62 µM [inhibitor, partial curve, poor fit]
14 | COC(=O)CCc1c(C)c(C(=O)c2cc(OC)c(OC)c(OC)c2)c2ccccn12 | inconclusive: 7.94 µM [inhibitor, partial curve, poor fit]
15 | CCN(CC)CCNC(=O)c1cn(CC)c2ccc(S(=O)(=O)N3CCc4ccccc4C3)cc2c1=O | inconclusive: 4.47 µM [inhibitor, partial curve]
16 | C/C=C\C=C\C(=O)N1CC2(CC(c3cccc(NC(=O)COc4ccc(Cl)cc4)c3)=NO2)C[C@H]1C(N)=O (stereo not given in full) | inconclusive: 12.6 µM [inhibitor, single point]
17 | CC(C)c1cc(-c2cc(C(=O)NCc3ccccc3)on2)nc(NCC2CC2)n1 | inconclusive: 28.2 µM [inhibitor, single point]
18 | CCOCCCNC(=O)CN1CCN(Cc2ccc(Cl)cc2)C1=O | inactive
19 | CCCC(=O)n1nc(-c2ccco2)nc1SCc1ccccc1 | inconclusive: 7.94 µM [inhibitor, partial curve, poor fit]
20 | O=C(c1ccc(NC2=NC3CS(=O)(=O)CC3S2)cc1)N1CCN(c2ccccc2F)CC1 (stereo not given) | inconclusive: 0.501 µM [inhibitor, partial curve, poor fit]
21 | CC(C)Cc1cc(C(=O)Nc2cccc(O)c2)no1 | inconclusive: 10 µM [inhibitor, partial curve]
22 | Cc1ccc2[nH]c(=O)c(CN(CCc3ccccc3)C(c3nnnn3Cc3ccco3)C(C)C)cc2c1 (stereo not given) | inactive

Row | Compound | Potency
23 | Cc1ccc(Nc2nc(N)c3ccccc3n2)cc1C | active: 7.08 µM
24 | CC(NC(=O)C(C)(C)C)C(c1cccs1)N1CCN(Cc2ccccc2)CC1 (stereo not given) | inconclusive: 2.82 µM [inhibitor, single point]
25 | c1ccc(-n2nnc(-c3nccs3)n2)cc1 | inconclusive: 10 µM [inhibitor, partial curve, poor fit]
26 | CC1(C)NC(=O)N(CCCCOc2ccc(Cl)cc2C=O)C1=O | inconclusive: 10 µM [inhibitor, single point]
27 | O=C(Nc1ccc(Cl)cc1)C1=Cc2cc(Cl)ccc2OC1 | inactive
28 | Cc1ccc(NC(=O)CSc2ncn[nH]2)c([N+](=O)[O-])c1 | inactive
29 | COC(=O)c1cc2ccsc2n1Cc1cccc(F)c1 | inconclusive: 6.31 µM [inhibitor, partial curve]
30 | Cc1ccc(S(=O)(=O)N/N=C/c2c[nH]c3ccccc23)cc1 | inconclusive: 8.91 µM [inhibitor, single point]
31 | CCOC(=O)C/C(C)=N/NC(=O)COc1ccccc1C | inactive
32 | N/C(=N/OC(=O)c1ccc(Cl)cc1)c1ncc([N+](=O)[O-])s1 | inconclusive: 0.891 µM [inhibitor, full curve, poor fit]
33 | Nc1c(-c2ccc(Cl)cc2)cnc2c(-c3ccccc3)cnn12 | inactive
34 | N#C/C(=C/c1ccc(N2CCOCC2)o1)C(=O)NC1CCCCC1 | inconclusive: 3.98 µM [inhibitor, partial curve, poor fit]
35 | Cc1ccc(-n2cc(CNC(C)c3cnn(C)c3C)c(-c3ccc(F)cc3)n2)cc1 (stereo not given) | inconclusive: 28.2 µM [inhibitor, single point]
36 | CCCCn1c(N)c(N(C(=O)CSc2nnnn2-c2ccccc2C)C2CCCC2)c(=O)[nH]c1=O | inactive
37 | COc1ccc(C(=O)/C=C/c2ccc(O)cc2)cc1 | inconclusive: 8.91 µM [inhibitor, single point]
38 | COc1ccccc1-c1csc2ncnc(Sc3nnnn3C)c12 | inconclusive: 11.2 µM [inhibitor, single point]
39 | Cc1ccc(S(=O)(=O)N2CCN(C(=O)N(C)C)CC2)cc1 | inconclusive: 2.82 µM [inhibitor, single point]
40 | C=CCNC(=O)c1cc2c(=O)n3ccccc3nc2s1 | inconclusive: 10 µM [inhibitor, single point]
41 | COc1ccc(C2CC(=O)C=C(NCc3ccccc3)C2)cc1 (stereo not given) | inconclusive: 6.31 µM [inhibitor, partial curve, poor fit]
42 | COc1ccc(CN2CCN(Cc3nc4ccccc4s3)CC2CCO)c(C)c1C (stereo not given) | inconclusive: 31.6 µM [inhibitor, partial curve, poor fit]
43 | CC(=O)c1c(C)[nH]c(C(=O)CN2CCN(S(=O)(=O)c3ccccc3[N+](=O)[O-])CC2)c1C | inconclusive: 12.6 µM [inhibitor, single point]
44 | CSC(=NC#N)N1CCN(C(c2ccccc2)c2ccccc2)CC1 | inconclusive: 8.91 µM [inhibitor, partial curve, poor fit]

No new results follow: entries from further up.
Row | Compound | Potency
10 | Cn1c2ccccc2c(=O)c2cc(C#CC3(O)CCCCC3)ccc21 | active: 1.26 µM
11 | CC(C)N1CCN(CCCc2ccccc2)CC1CCO (stereo not given) | inconclusive: 2 µM [inhibitor, full curve, poor fit]
12 | Cc1c(C(=O)Nc2ccc3c(c2)OCO3)sc2nc(-c3ccccc3)cn12 | inconclusive: 1.58 µM [inhibitor, full curve, poor fit]
13 | CN(CCCCCCCCCCN(C)C(=O)Oc1cccc([N+](C)(C)C)c1)C(=O)Oc1cccc([N+](C)(C)C)c1 | inconclusive: 5.62 µM [inhibitor, partial curve, poor fit]
14 | COC(=O)CCc1c(C)c(C(=O)c2cc(OC)c(OC)c(OC)c2)c2ccccn12 | inconclusive: 7.94 µM [inhibitor, partial curve, poor fit]
15 | CCN(CC)CCNC(=O)c1cn(CC)c2ccc(S(=O)(=O)N3CCc4ccccc4C3)cc2c1=O | inconclusive: 4.47 µM [inhibitor, partial curve]
16 | C/C=C\C=C\C(=O)N1CC2(CC(c3cccc(NC(=O)COc4ccc(Cl)cc4)c3)=NO2)C[C@H]1C(N)=O (stereo not given in full) | inconclusive: 12.6 µM [inhibitor, single point]
17 | CC(C)c1cc(-c2cc(C(=O)NCc3ccccc3)on2)nc(NCC2CC2)n1 | inconclusive: 28.2 µM [inhibitor, single point]
18 | CCOCCCNC(=O)CN1CCN(Cc2ccc(Cl)cc2)C1=O | inactive
19 | CCCC(=O)n1nc(-c2ccco2)nc1SCc1ccccc1 | inconclusive: 7.94 µM [inhibitor, partial curve, poor fit]
20 | O=C(c1ccc(NC2=NC3CS(=O)(=O)CC3S2)cc1)N1CCN(c2ccccc2F)CC1 (stereo not given) | inconclusive: 0.501 µM [inhibitor, partial curve, poor fit]
21 | CC(C)Cc1cc(C(=O)Nc2cccc(O)c2)no1 | inconclusive: 10 µM [inhibitor, partial curve]
22 | Cc1ccc2[nH]c(=O)c(CN(CCc3ccccc3)C(c3nnnn3Cc3ccco3)C(C)C)cc2c1 (stereo not given) | inactive
23 | Cc1ccc(Nc2nc(N)c3ccccc3n2)cc1C | active: 7.08 µM
24 | CC(NC(=O)C(C)(C)C)C(c1cccs1)N1CCN(Cc2ccccc2)CC1 (stereo not given) | inconclusive: 2.82 µM [inhibitor, single point]
25 | c1ccc(-n2nnc(-c3nccs3)n2)cc1 | inconclusive: 10 µM [inhibitor, partial curve, poor fit]
26 | CC1(C)NC(=O)N(CCCCOc2ccc(Cl)cc2C=O)C1=O | inconclusive: 10 µM [inhibitor, single point]
27 | O=C(Nc1ccc(Cl)cc1)C1=Cc2cc(Cl)ccc2OC1 | inactive
28 | Cc1ccc(NC(=O)CSc2ncn[nH]2)c([N+](=O)[O-])c1 | inactive

(further entries)

Row | Compound | Potency
45 | COc1ccc(-c2cccc(NS(=O)(=O)c3cccc([N+](=O)[O-])c3)c2)nn1 | inactive
46 | COc1ccccc1C(=O)NNC(=S)NC(=O)c1cc(OC)c(OC)c(OC)c1 | inconclusive: 11.2 µM [inhibitor, partial curve, poor fit]
47 | CN(C(=O)c1ccc(NC(=O)Cc2cccc(NC(=O)C3CCCN(C(=O)c4ccccc4)C3)c2)cc1)C1CC1 (stereo not given) | inconclusive: 11.2 µM [inhibitor, partial curve, poor fit]
48 | Cn1c(-c2ccccc2)cc2onc(-c3ccccc3)c2c1=O | inconclusive: 0.891 µM [inhibitor, full curve, poor fit]
49 | Cc1ccc(CN2CC(C(=O)Nc3ccc(C)c(S(=O)(=O)N4CCCCC4)c3)CC2=O)cc1 (stereo not given) | inactive
50 | CCCCCCNC(=O)c1cn(CC)c2cc(N3CCN(C)CC3)c(F)cc2c1=O | inconclusive: 8.91 µM [inhibitor, single point]
51 | COc1ccc(C(O)(C(C)C)C(CN2CCOCC2)c2ccccc2)cc1 (stereo not given) | inconclusive: 1.78 µM [inhibitor, full curve, poor fit]
52 | COc1ccc(SC[C@H](Cc2ccccc2)N2CC[C@@H](NC(=O)OCc3ccccc3)CCC2=O)cc1 | inconclusive: 12.6 µM [inhibitor, single point]
53 | CN1CCC(N(C)S(=O)(=O)c2ccc(NC(=O)COc3ccc(F)cc3Cl)cc2)CC1 | inconclusive: 10 µM [inhibitor, partial curve, poor fit]
54 | CC/C(=N\NC(=O)c1ccc2c(c1)OCO2)c1ccccc1 | inconclusive: 10 µM [inhibitor, partial curve, poor fit]
55 | S=c1[nH]nc(-c2ccccc2)n1/N=C/c1ccc(-c2ccccc2Cl)o1 | inconclusive: 14.1 µM [inhibitor, single point]
56 | O=C(Nc1ccc(Cl)cc1)Nc1ccon1 | inconclusive: 3.16 µM [inhibitor, partial curve, poor fit]
57 | Cc1cccc(S(=O)(=O)Nc2cc(Cl)ccc2N2CCOCC2)c1 | inactive
58 | Cc1ccc(/C(N)=N/OC(=O)N2CCOCC2)cc1 | inconclusive: 8.91 µM [inhibitor, partial curve, poor fit]
59 | COc1cccc(CNc2ccc3c(c2)ncn3C(C)C)c1OC | inconclusive: 10 µM [inhibitor, single point]
60 | CC(=O)NC(c1ccc(Cl)cc1Cl)c1ccc2cccnc2c1O (stereo not given) | inconclusive: 4.47 µM [inhibitor, full curve, poor fit]
61 | COc1cc(C(=O)NCCCC2CCCC2)ccc1OC1CCN(C(C)=O)CC1 | inactive
62 | O=C(Nc1ccc(Nc2ccccc2)cc1)c1ccco1 | inactive
63 | Cc1cc(NC(=O)CN2C(=O)NC3(CCCCCC3)C2=O)ccc1Br | inconclusive: 11.2 µM [inhibitor, single point]
64 | O=C(CCN=C1NS(=O)(=O)c2ccccc21)Nc1ccc(F)cc1Cl | inconclusive: 0.355 µM [inhibitor, full curve, poor fit]
65 | Cc1ccc2nc(N/N=C/c3ccco3)cc(C)c2c1 | inconclusive: 5.01 µM [inhibitor, partial curve, poor fit]
